From paper PMC9834240, “Senescent cells perturb intestinal stem cell differentiation through Ptk7 induced noncanonical Wnt and YAP signaling” (Nature Communications, 2023)
Results are given in words; binding and its absence hold for the method and conditions named. Some entries that bind do so weakly or less than the wild type. Sequences can lack the tags named with a protein.

Sequences of proteins named here, by UniProt entry; tags and fusion partners are left off. Residues count along the entry.
UniProt P27467, residues 19-352: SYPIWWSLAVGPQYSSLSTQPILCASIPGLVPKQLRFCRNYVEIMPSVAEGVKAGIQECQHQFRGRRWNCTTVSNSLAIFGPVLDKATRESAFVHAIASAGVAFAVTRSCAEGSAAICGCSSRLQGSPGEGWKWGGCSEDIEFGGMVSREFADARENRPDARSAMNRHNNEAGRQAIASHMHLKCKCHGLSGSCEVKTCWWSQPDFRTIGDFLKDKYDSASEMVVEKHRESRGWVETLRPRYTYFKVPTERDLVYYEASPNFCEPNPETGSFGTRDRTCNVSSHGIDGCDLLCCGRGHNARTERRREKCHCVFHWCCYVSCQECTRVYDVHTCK

Legend:
biotinylated Wnt3a [1] = molecular target: biotinylated Wnt3a (UniProt P27467); experiment: ELISA; biotinylated Wnt3a or Wnt5a incubated 1 h at 4 °C with a dilution series of PTK7-Fc or FZD7-His in PBS + 0.5 % BSA + 15 ppm ProClin 300, then captured on Neutravidin plates; detected by anti-hIgG1-Fc-HRP or anti-His-tag-HRP; both purified
biotinylated Wnt5a [2] = molecular target: T1, biotinylated Wnt5a (UniProt P22725); experiment: as above
T1 sequence (chain, biotin): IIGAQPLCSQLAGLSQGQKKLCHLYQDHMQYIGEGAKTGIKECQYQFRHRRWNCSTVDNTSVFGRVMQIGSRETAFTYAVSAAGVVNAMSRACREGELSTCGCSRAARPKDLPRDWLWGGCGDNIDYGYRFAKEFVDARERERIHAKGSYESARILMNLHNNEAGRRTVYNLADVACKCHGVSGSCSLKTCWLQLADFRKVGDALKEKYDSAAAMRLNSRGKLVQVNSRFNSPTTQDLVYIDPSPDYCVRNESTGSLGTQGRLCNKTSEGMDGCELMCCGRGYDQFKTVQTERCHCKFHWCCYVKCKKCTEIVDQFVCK

biotinylated Wnt3a [3] = molecular target: biotinylated Wnt3a (UniProt P27467); experiment: ELISA; as a1, dilution series of PTK7-Fc on biotinylated Wnt3a or Wnt5a in the presence of 500 nM FZD7-His as a competitor; Ptk7 detected by anti-hIgG1-Fc-HRP and FZD7 by anti-His-tag-HRP; both purified
biotinylated Wnt5a [4] = molecular target: T1, biotinylated Wnt5a; experiment: as above

binding (biotinylated Wnt3a [1]): binds
binding (biotinylated Wnt5a [2]): binds
binding (biotinylated Wnt3a [3]): binds
binding (biotinylated Wnt5a [4]): binds
B1: PTK7-Fc (Ptk7 extracellular domain, sPtk7) (Fc fusion, UniProt Q13308 31-704)
chain: AIVFIKQPSSQDALQGRRALLRCEVEAPGPVHVYWLLDGAPVQDTERRFAQGSSLSFAAVDRLQDSGTFQCVARDDVTGEEARSANASFNIKWIEAGPVVLKHPASEAEIQPQTQVTLRCHIDGHPRPTYQWFRDGTPLSDGQSNHTVSSKERNLTLRPAGPEHSGLYSCCAHSAFGQACSSQNFTLSIADESFARVVLAPQDVVVARYEEAMFHCQFSAQPPPSLQWLFEDETPITNRSRPPHLRRATVFANGSLLLTQVRPRNAGIYRCIGQGQRGPPIILEATLHLAEIEDMPLFEPRVFTAGSEERVTCLPPKGLPEPSVWWEHAGVRLPTHGRVYQKGHELVLANIAESDAGVYTCHAANLAGQRRQDVNITVATVPSWLKKPQDSQLEEGKPGYLDCLTQATPKPTVVWYRNQMLISEDSRFEVFKNGTLRINSVEVYDGTWYRCMSSTPAGSIEAQARVQVLEKLKFTPPPQPQQCMEFDKEATVPCSATGREKPTIKWERADGSSLPEWVTDNAGTLHFARVTRDDAGNYTCIASNGPQGQIRAHVQLTVAVFITFKVEPERTTVYQGHTALLQCEAQGDPKPLIQWKGKDRILDPTKLGPRMHIFQNGSLVIHDVAPEDSGRYTCIAGNSCNIKHTEAPLYVVDKPVPEESEGPGSPPPYKMIQT
